Measurements as given in PubChem BioAssay AID248 (DTP/NCI, 2004).
The list shows only some results of the screen, not a fair sample: it gathers tests that were run many times, whatever their T/C, doses with no T/C, and many T/C values between a quarter and a half above the control. Other doses and runs of a compound stand elsewhere. T/C gives the treated animals as a percentage of the vehicle group. Some doses have a count of surviving animals in place of a T/C: the source holds a T/C of zero for them, seemingly a mark for toxic or unscored doses. Survivors were counted at the toxicity check, usually on the fifth day, unless a day is given; later deaths do not show. Schedules are NCI's codes, taken here to give the interval after Q, in days (D) or hours (H), and the number of doses after X. Where survival is the endpoint, this PubChem deposit counts one and a half times the control or more as active, and values a quarter to a half above the control carry no call in these data; other NCI protocols may use other cut-offs. Some T/C values carry the count of animals alive at the toxicity check (mostly the fifth day); where none is given, no animal had died by that day. Some entries hold several experiments; the results are listed from low to high.

System: L1210 leukemia ip in BDF1 mice, survival T/C
Experiment: NCI In Vivo Anticancer Drug Screen. Data for tumor model L1210 Leukemia (intraperitoneal) in B6D2F1 (BDF1) mice
Conditions: T/C endpoint: mean survival time, higher T/C = longer survival

CCc1ccc(/C=C/c2ccc(O)c3ncccc23)[n+](C)c1
T/C (dose: 8.0 mg/kg/injection, schedule: Q01DX009 (ip), vehicle: carboxymethylcellulose (CMC)): 129 % of control
T/C (dose: 8.0 mg/kg/injection, schedule: Q01DX015 (ip), vehicle: carboxymethylcellulose (CMC)): 125 % of control
T/C (dose: 16.0 mg/kg/injection, schedule: Q01DX009 (ip), vehicle: carboxymethylcellulose (CMC)): 129 % of control
T/C (dose: 16.0 mg/kg/injection, schedule: Q01DX015 (ip), vehicle: carboxymethylcellulose (CMC)): 134 [5 of 6 alive] and 144 % of control
survivor count (dose: 32.0 mg/kg/injection, schedule: Q01DX009 (ip), vehicle: carboxymethylcellulose (CMC)): 2 of 6
survivor count (dose: 35.0 mg/kg/injection, schedule: Q01DX009 (ip), vehicle: saline with Tween-80): 0 of 6
survivor count (dose: 35.0 mg/kg/injection, schedule: Q04DX003 (ip), vehicle: saline): 3 of 6
survivor count (dose: 50.0 mg/kg/injection, schedule: Q01DX001 (ip), vehicle: saline): 0 of 6
survivor count (dose: 55.0 mg/kg/injection, schedule: Q01DX009 (ip), vehicle: saline with Tween-80): 0 of 6
survivor count (dose: 55.0 mg/kg/injection, schedule: Q04DX003 (ip), vehicle: saline): 1 of 6
survivor count (dose: 64.0 mg/kg/injection, schedule: Q01DX001 (ip), vehicle: other): 1 of 10
survivor count (dose: 64.0 mg/kg/injection, schedule: Q01DX009 (ip), vehicle: carboxymethylcellulose (CMC)): 0 of 6
survivor count (dose: 64.0 mg/kg/injection, schedule: Q01DX015 (ip), vehicle: carboxymethylcellulose (CMC)): 0 of 6
survivor count (dose: 64.0 mg/kg/injection, schedule: Q04DX003 (ip), vehicle: other): 0 of 10
survivor count (dose: 64.0 mg/kg/injection, schedule: Q08DX002 (ip), vehicle: other): 1 of 10
survivor count (dose: 80.0 mg/kg/injection, schedule: Q01DX001 (ip), vehicle: carboxymethylcellulose (CMC)): 1 of 6
survivor count (dose: 80.0 mg/kg/injection, schedule: Q01DX009 (ip), vehicle: saline with Tween-80): 0 of 6
survivor count (dose: 80.0 mg/kg/injection, schedule: Q04DX003 (ip), vehicle: saline): 1 of 6
survivor count (dose: 100.0 mg/kg/injection, schedule: Q01DX001 (ip), vehicle: carboxymethylcellulose (CMC)): 0 of 6
survivor count (dose: 100.0 mg/kg/injection, schedule: Q01DX001 (ip), vehicle: saline): 0 of 6
survivor count (dose: 128.0 mg/kg/injection, schedule: Q01DX001 (ip), vehicle: other): 0 of 10
survivor count (dose: 128.0 mg/kg/injection, schedule: Q04DX003 (ip), vehicle: other): 0 of 10
survivor count (dose: 128.0 mg/kg/injection, schedule: Q08DX002 (ip), vehicle: other): 0 of 10
survivor count (dose: 200.0 mg/kg/injection, schedule: Q01DX001 (ip), vehicle: carboxymethylcellulose (CMC)): 0 of 6
survivor count (dose: 200.0 mg/kg/injection, schedule: Q01DX001 (ip), vehicle: saline): 1 of 6
survivor count (dose: 400.0 mg/kg/injection, schedule: Q01DX001 (ip), vehicle: carboxymethylcellulose (CMC)): 0 of 6
survivor count (dose: 400.0 mg/kg/injection, schedule: Q01DX001 (ip), vehicle: saline): 0 of 6
